Source: the supplement of paper PMC7661543
The effect of the compound repeats well; differences between the knockouts mostly do not.

Tested on: HCC-38
Test: relative cell number vs DMSO control (72 h) (% of DMSO); higher = less growth inhibition (more cells)
Experimental: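 QMAP-Seq: a pool of 5 breast cancer cell lines (ZR-75-1, SKBR3, HCC-38, MDA-MB-231, BT-20), each carrying 12 doxycycline-inducible Cas9 sgRNA perturbations (11 knockouts plus non-targeting sgNT), was treated with compounds for 72 h at four 10-fold doses (10 nM-10 uM or 1 nM-1 uM range). Barcodes were amplified and sequenced, and cell number was interpolated from 293T spike-in standard curves. The result is expressed as % of the median of DMSO wells. Two biological replicates.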

CS(=O)(=O)N1CCN(Cc2cc3nc(-c4cccc5[nH]ncc45)nc(N4CCOCC4)c3s2)CC1 [GDC0941]
Details | relative cell number
sgRNA knockout: sgATF3, 10 nM | 94.4
sgRNA knockout: sgATF3, 100 nM | 93.4
sgRNA knockout: sgATF3, 1000 nM | 81.2
sgRNA knockout: sgATF3, 10000 nM | 38.8
sgRNA knockout: sgATF4, 10 nM | 79.9
sgRNA knockout: sgATF4, 100 nM | 108
sgRNA knockout: sgATF4, 1000 nM | 82.8
sgRNA knockout: sgATF4, 10000 nM | 34.4
sgRNA knockout: sgATF6, 10 nM | 99.8
sgRNA knockout: sgATF6, 100 nM | 94.3
sgRNA knockout: sgATF6, 1000 nM | 71.5
sgRNA knockout: sgATF6, 10000 nM | 43.6
sgRNA knockout: sgATG7, 10 nM | 80
sgRNA knockout: sgATG7, 100 nM | 104
sgRNA knockout: sgATG7, 1000 nM | 77.6
sgRNA knockout: sgATG7, 10000 nM | 39.9
sgRNA knockout: sgERN1, 10 nM | 86.5
sgRNA knockout: sgERN1, 100 nM | 98.8
sgRNA knockout: sgERN1, 1000 nM | 70.1
sgRNA knockout: sgERN1, 10000 nM | 39.8
sgRNA knockout: sgHSF1, 10 nM | 96.9
sgRNA knockout: sgHSF1, 100 nM | 82.1
sgRNA knockout: sgHSF1, 1000 nM | 70
sgRNA knockout: sgHSF1, 10000 nM | 39
sgRNA knockout: sgHSF2, 10 nM | 83.7
sgRNA knockout: sgHSF2, 100 nM | 109
sgRNA knockout: sgHSF2, 1000 nM | 73.2
sgRNA knockout: sgHSF2, 10000 nM | 35.1
sgRNA knockout: sgKEAP1, 10 nM | 118
sgRNA knockout: sgKEAP1, 100 nM | 84.5
sgRNA knockout: sgKEAP1, 1000 nM | 72
sgRNA knockout: sgKEAP1, 10000 nM | 48.1
sgRNA knockout: sgNFE2L2, 10 nM | 79.5
sgRNA knockout: sgNFE2L2, 100 nM | 103
sgRNA knockout: sgNFE2L2, 1000 nM | 77.7
sgRNA knockout: sgNFE2L2, 10000 nM | 33.6
sgRNA knockout: sgSLC35F2, 10 nM | 82.1
sgRNA knockout: sgSLC35F2, 100 nM | 98.3
sgRNA knockout: sgSLC35F2, 1000 nM | 82.86
sgRNA knockout: sgSLC35F2, 10000 nM | 39
sgRNA knockout: sgXBP1, 10 nM | 82.2
sgRNA knockout: sgXBP1, 100 nM | 108
sgRNA knockout: sgXBP1, 1000 nM | 85.3
sgRNA knockout: sgXBP1, 10000 nM | 38.3

OCc1ccc(-c2ccc(-c3ccc(CO)s3)o2)s1
Details | relative cell number
sgRNA knockout: sgATF3, 10 nM | 137
sgRNA knockout: sgATF3, 100 nM | 120
sgRNA knockout: sgATF3, 1000 nM | 122
sgRNA knockout: sgATF3, 10000 nM | 65.5
sgRNA knockout: sgATF4, 10 nM | 131
sgRNA knockout: sgATF4, 100 nM | 120
sgRNA knockout: sgATF4, 1000 nM | 113
sgRNA knockout: sgATF4, 10000 nM | 69.6
sgRNA knockout: sgATF6, 10 nM | 163
sgRNA knockout: sgATF6, 100 nM | 129
sgRNA knockout: sgATF6, 1000 nM | 135
sgRNA knockout: sgATF6, 10000 nM | 65.3
sgRNA knockout: sgATG7, 10 nM | 123
sgRNA knockout: sgATG7, 100 nM | 119
sgRNA knockout: sgATG7, 1000 nM | 123
sgRNA knockout: sgATG7, 10000 nM | 66.7
sgRNA knockout: sgERN1, 10 nM | 129
sgRNA knockout: sgERN1, 100 nM | 116
sgRNA knockout: sgERN1, 1000 nM | 112
sgRNA knockout: sgERN1, 10000 nM | 66.3
sgRNA knockout: sgHSF1, 10 nM | 167
sgRNA knockout: sgHSF1, 100 nM | 128
sgRNA knockout: sgHSF1, 1000 nM | 117
sgRNA knockout: sgHSF1, 10000 nM | 58.6
sgRNA knockout: sgHSF2, 10 nM | 135
sgRNA knockout: sgHSF2, 100 nM | 125
sgRNA knockout: sgHSF2, 1000 nM | 106
sgRNA knockout: sgHSF2, 10000 nM | 70.4
sgRNA knockout: sgKEAP1, 10 nM | 198
sgRNA knockout: sgKEAP1, 100 nM | 120
sgRNA knockout: sgKEAP1, 1000 nM | 137
sgRNA knockout: sgKEAP1, 10000 nM | 67.5
sgRNA knockout: sgNFE2L2, 10 nM | 121
sgRNA knockout: sgNFE2L2, 100 nM | 122
sgRNA knockout: sgNFE2L2, 1000 nM | 114
sgRNA knockout: sgNFE2L2, 10000 nM | 66.4
sgRNA knockout: sgSLC35F2, 10 nM | 131
sgRNA knockout: sgSLC35F2, 100 nM | 114
sgRNA knockout: sgSLC35F2, 1000 nM | 112
sgRNA knockout: sgSLC35F2, 10000 nM | 65.6
sgRNA knockout: sgXBP1, 10 nM | 122
sgRNA knockout: sgXBP1, 100 nM | 118
sgRNA knockout: sgXBP1, 1000 nM | 110
sgRNA knockout: sgXBP1, 10000 nM | 61

Cc1[nH]c(/C=C2\C(=O)Nc3ccc(S(=O)(=O)N(C)c4cccc(Cl)c4)cc32)c(C)c1C(=O)N1CCN(C)CC1
Details | relative cell number
sgRNA knockout: sgATF3, 10 nM | 101
sgRNA knockout: sgATF3, 100 nM | 96.8
sgRNA knockout: sgATF3, 1000 nM | 85
sgRNA knockout: sgATF3, 10000 nM | 62.3
sgRNA knockout: sgATF4, 10 nM | 102
sgRNA knockout: sgATF4, 100 nM | 109
sgRNA knockout: sgATF4, 1000 nM | 83.1
sgRNA knockout: sgATF4, 10000 nM | 62.9
sgRNA knockout: sgATF6, 10 nM | 89.3
sgRNA knockout: sgATF6, 100 nM | 104
sgRNA knockout: sgATF6, 1000 nM | 81.2
sgRNA knockout: sgATF6, 10000 nM | 64.9
sgRNA knockout: sgATG7, 10 nM | 101
sgRNA knockout: sgATG7, 100 nM | 96.6
sgRNA knockout: sgATG7, 1000 nM | 90.4
sgRNA knockout: sgATG7, 10000 nM | 71.1
sgRNA knockout: sgERN1, 10 nM | 107
sgRNA knockout: sgERN1, 100 nM | 98.4
sgRNA knockout: sgERN1, 1000 nM | 84.9
sgRNA knockout: sgERN1, 10000 nM | 59
sgRNA knockout: sgHSF1, 10 nM | 87.3
sgRNA knockout: sgHSF1, 100 nM | 94.5
sgRNA knockout: sgHSF1, 1000 nM | 87.6
sgRNA knockout: sgHSF1, 10000 nM | 86.4
sgRNA knockout: sgHSF2, 10 nM | 100
sgRNA knockout: sgHSF2, 100 nM | 116
sgRNA knockout: sgHSF2, 1000 nM | 96.6
sgRNA knockout: sgHSF2, 10000 nM | 57.23
sgRNA knockout: sgKEAP1, 10 nM | 104
sgRNA knockout: sgKEAP1, 100 nM | 102
sgRNA knockout: sgKEAP1, 1000 nM | 90.8
sgRNA knockout: sgKEAP1, 10000 nM | 71.9
sgRNA knockout: sgNFE2L2, 10 nM | 103
sgRNA knockout: sgNFE2L2, 100 nM | 101.92
sgRNA knockout: sgNFE2L2, 1000 nM | 84.5
sgRNA knockout: sgNFE2L2, 10000 nM | 65.5
sgRNA knockout: sgSLC35F2, 10 nM | 104
sgRNA knockout: sgSLC35F2, 100 nM | 92.3
sgRNA knockout: sgSLC35F2, 1000 nM | 86.5
sgRNA knockout: sgSLC35F2, 10000 nM | 58.5
sgRNA knockout: sgXBP1, 10 nM | 97.9
sgRNA knockout: sgXBP1, 100 nM | 99.7
sgRNA knockout: sgXBP1, 1000 nM | 88.3
sgRNA knockout: sgXBP1, 10000 nM | 67.5
